Measured values reported in article PMC9640980, “Pharmacological evaluation of enantiomerically separated positive allosteric modulators of cannabinoid 1 receptor, GAT591 and GAT593” (Frontiers in Pharmacology, 2022).
These are yes or no findings as the source states them, for the method shown. In cells and extracts the contact can be indirect. Some results given as binding are weak or reduced against the parent protein; the word gives no strength.

The chains behind the UniProt entries cited, without tags or fusion partners.
UniProt P21554: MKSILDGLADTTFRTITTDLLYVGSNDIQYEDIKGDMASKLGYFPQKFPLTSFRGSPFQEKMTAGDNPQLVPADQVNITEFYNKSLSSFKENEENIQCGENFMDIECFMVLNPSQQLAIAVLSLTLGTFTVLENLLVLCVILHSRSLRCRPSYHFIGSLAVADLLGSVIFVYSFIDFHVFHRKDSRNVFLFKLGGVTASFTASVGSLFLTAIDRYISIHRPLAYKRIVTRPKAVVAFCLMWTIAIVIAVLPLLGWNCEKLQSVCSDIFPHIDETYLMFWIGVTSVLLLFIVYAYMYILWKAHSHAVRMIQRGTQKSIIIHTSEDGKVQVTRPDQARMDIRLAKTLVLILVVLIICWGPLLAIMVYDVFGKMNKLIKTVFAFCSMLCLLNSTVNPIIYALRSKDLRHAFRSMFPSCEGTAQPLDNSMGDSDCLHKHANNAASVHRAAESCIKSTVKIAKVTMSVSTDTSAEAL
UniProt P32121: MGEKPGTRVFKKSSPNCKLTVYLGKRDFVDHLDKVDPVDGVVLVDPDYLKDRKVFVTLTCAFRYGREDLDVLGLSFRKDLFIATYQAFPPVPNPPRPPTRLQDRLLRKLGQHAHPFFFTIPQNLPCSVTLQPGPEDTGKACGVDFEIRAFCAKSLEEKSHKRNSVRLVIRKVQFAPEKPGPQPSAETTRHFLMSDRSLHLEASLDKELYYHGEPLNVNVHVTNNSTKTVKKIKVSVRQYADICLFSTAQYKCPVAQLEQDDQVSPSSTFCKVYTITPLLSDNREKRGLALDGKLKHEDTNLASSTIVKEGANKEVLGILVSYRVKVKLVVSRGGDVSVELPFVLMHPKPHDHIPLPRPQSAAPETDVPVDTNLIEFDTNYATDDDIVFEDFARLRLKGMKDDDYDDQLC

Key:
[1] = target: human type 1 cannabinoid receptor (hCB1R) (human) (UniProt P21554); assay: split reporter; PathHunter βarrestin2 recruitment assay (DiscoveRx) in hCB1R CHO-K1 cells; cells treated 90 min with 0.10 nM–10 µM compounds (CP55,940, GAT1665, GAT1667, GAT1666) ±100 nM CP55,940; chemiluminescence; data as % CP55,940 max
[2] = target: human type 1 cannabinoid receptor (hCB1R) (human) (UniProt P21554); assay: condition: only cells treated with GAT1664 (0.10 nM–10 µM) as the activating compound; split reporter; PathHunter βarrestin2 recruitment assay (DiscoveRx) in hCB1R CHO-K1 cells; cells treated 90 min with 0.10 nM–10 µM GAT1664; chemiluminescence

binding [1]: binds | binding [2]: no binding
Substance: βarrestin2 (from UniProt P32121 1-409)
